Counter-ions that a name gives are not always drawn. The list shows a part of the results. Many values rest on one well or one pass, so single values are uncertain.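 Primary human fetal astrocytes engulfed labelled rat cortical synaptosomes, measured as a red/green ratio corrected for calcein live-cell signal and scaled to the plate median. Toxicity meant calcein falling over 30%; decreased phagocytosis meant below 70% of median above 5 µM.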
How the values were obtained:
[1] = tested on: Human fetal astrocytes; assay: loss of total cells relative to no-compound high-control median (toxicity); higher = more toxic (fewer cells); conditions: 24 h
[2] = tested on: Human fetal astrocytes; assay: synaptosome phagocytosis (pHrodo/calcein intensity ratio) relative to plate median of data wells; higher = more phagocytosis; conditions: 24 h

Structure (SMILES)	loss of total cells ([1]; 1.39 µM)	loss of total cells ([1]; 2.78 µM)	loss of total cells ([1]; 5.56 µM)	loss of total cells ([1]; 11.11 µM)	loss of total cells ([1]; 22.22 µM)	synaptosome phagocytosis ([2]; 1.39 µM)	synaptosome phagocytosis ([2]; 2.78 µM)	synaptosome phagocytosis ([2]; 5.56 µM)	synaptosome phagocytosis ([2]; 11.11 µM)	synaptosome phagocytosis ([2]; 22.22 µM)
CC[C@]1(O)C[C@H]2CN(CCc3c([nH]c4ccccc34)[C@@](C(=O)OC)(c3cc4c(cc3OC)N(C=O)[C@H]3[C@@](O)(C(=O)OC)[C@H](OC(C)=O)[C@]5(CC)C=CCN6CC[C@]43[C@@H]65)C2)C1 [Vincristine sulfate]	7.8%	0.3%	29.2%	23.4%	7.4%	115%	102%	98.8%	107%	99.2%
Cn1ccc2cc(NC(=O)Nc3cccnc3)ccc21	-23.9%	-5.1%	-5.1%	1.3%	-11.7%	77.7%	76.6%	103%	98.9%	98.9%
C=C(C)[C@@H]1CC=C(C(=O)O)CC1 [(-)-Perillic acid]	-17.7%	-33.8%	-15.2%	10.3%	-28%	118%	106%	130%	112%	107%
Cc1nc(N=Nc2cc(S(=O)(=O)O)c3cc([N+](=O)[O-])cc(S(=O)(=O)O)c3c2)c(COP(=O)(O)O)c(C=O)c1O [PPNDS tetrasodium]	-13.7%	-2.3%	7%	4.8%	15%	84.2%	98.4%	67.1%	112%	96.5%
N[C@@H](CC(=O)O)C(=O)O [L-Aspartic acid]	-12.1%	-11.4%	-17.1%	-13%	4.9%	69.2%	115%	108%	117%	110%
O=C(OCCN1CCCCC1)c1c[nH]c2ccccc12	4.6%	-6.8%	-4.9%	6.7%	-8%	111%	95.6%	89.1%	86.8%	93%
CN(C(=O)CCCOc1ccc2[nH]c(=O)ccc2c1)C1CCCCC1 [Cilostamide]	-12.8%	-24.4%	-11.5%	-13.9%	10.2%	105%	73.2%	99.5%	106%	88%
O=C(CCCN1CCC(O)(c2cccc(C(F)(F)F)c2)CC1)c1ccc(F)cc1 [Trifluperidol hydrochloride]	-14%	-29.6%	-1.7%	-1.1%	-12.3%	91.3%	111%	98.1%	101%	78.7%
Oc1ccc([C@@H]2CNCc3sccc32)cc1O	-5.3%	-26%	-18.5%	-31.8%	-28%	110%	93.4%	93.2%	86.6%	52.8%
C[C@@H](NC(=O)/C(C#N)=C/c1ccc(O)c(O)c1)c1ccccc1 [Tyrphostin AG 527]	-24.5%	-11.7%	-5.6%	-14.9%	-32.1%	116%	98.2%	116%	121%	95.1%
CC(C)[C@H]1c2ccc(F)cc2CC[C@@]1(CCN(C)CCCc1nc2ccccc2[nH]1)OC(=O)C1CC1	5.2%	8.6%	21.1%	59%	97.2%	123%	78.8%	58.2%	25.4%	0%
Cc1cn([C@H]2C[C@H](N=[N+]=[N-])[C@@H](CO)O2)c(=O)[nH]c1=O [3'-Azido-3'-deoxythymidine]	-3.3%	-11.1%	-14.3%	-4%	-3.4%	150%	117%	113%	119%	91.8%
C[N+](C)(C)CCO.[Br-] [Choline bromide]	-6.2%	-7.8%	-0.5%	-7.6%	4.1%	68.7%	98.8%	112%	108%	91.8%
C[n+]1cc2c3c(ccc2c2ccc4cc5c(cc4c21)OCO5)OCO3 [Sanguinarine chloride]	-9.6%	15.9%	14.6%	77%	63.4%	68.6%	57.7%	38.8%	0%	0%
CC1=C(CC(=O)O)c2cc(F)ccc2/C1=C\c1ccc(S(C)(=O)=O)cc1 [Sulindac sulfone]	-21.4%	-23.1%	-16.9%	-16.5%	-30.5%	94.4%	88%	95.9%	94.4%	94.1%
Cn1cnc([N+](=O)[O-])c1Sc1ncnc2[nH]cnc12 [Azathioprine]	-18.3%	-8.7%	-10.6%	-26.5%	-11.7%	63.2%	118%	109%	94.2%	131%
Cc1nc(N=Nc2ccc(C(=O)O)cc2)c(COP(=O)(O)O)c(C=O)c1O	-16.6%	-7.7%	8.9%	2.9%	-18.7%	75.3%	54%	96.7%	122%	110%
N[C@@H](CCC(=O)N[C@@H](CSN=O)C(=O)NCC(=O)O)C(=O)O [S-Nitrosoglutathione]	1.4%	14%	5.2%	22.9%	16.8%	84.8%	114%	106%	130%	126%
COc1cc(C(O)CO)ccc1OS(=O)(=O)O (stereo not given) [MHPG sulfate potassium]	3.8%	-15.4%	-2.5%	-4.9%	0.8%	81%	75.1%	120%	96.7%	95.5%
CN(C)CCCN1c2ccccc2Sc2ccc(Cl)cc21 [Chlorpromazine hydrochloride]	-15.8%	-5.1%	-13.4%	-8.5%	15.4%	84.7%	101%	76.2%	101%	75.1%

3 of these compounds in another layout.
Structure (SMILES),loss of total cells ([1]; 1.39 µM),loss of total cells ([1]; 2.78 µM),loss of total cells ([1]; 5.56 µM),loss of total cells ([1]; 11.11 µM),loss of total cells ([1]; 22.22 µM),synaptosome phagocytosis ([2]; 1.39 µM),synaptosome phagocytosis ([2]; 2.78 µM),synaptosome phagocytosis ([2]; 5.56 µM),synaptosome phagocytosis ([2]; 11.11 µM),synaptosome phagocytosis ([2]; 22.22 µM)
Cc1nc(N=Nc2cc(S(=O)(=O)O)c3cc([N+](=O)[O-])cc(S(=O)(=O)O)c3c2)c(COP(=O)(O)O)c(C=O)c1O [PPNDS tetrasodium],-13.7%,-2.3%,7%,4.8%,15%,84.2%,98.4%,67.1%,112%,96.5%
CC(C)[C@H]1c2ccc(F)cc2CC[C@@]1(CCN(C)CCCc1nc2ccccc2[nH]1)OC(=O)C1CC1,5.2%,8.6%,21.1%,59%,97.2%,123%,78.8%,58.2%,25.4%,0%
CN(C)CCCN1c2ccccc2Sc2ccc(Cl)cc21 [Chlorpromazine hydrochloride],-15.8%,-5.1%,-13.4%,-8.5%,15.4%,84.7%,101%,76.2%,101%,75.1%

Next part

Structure (SMILES)	loss of total cells ([1]; 1.39 µM)	loss of total cells ([1]; 2.78 µM)	loss of total cells ([1]; 5.56 µM)	loss of total cells ([1]; 11.11 µM)	loss of total cells ([1]; 22.22 µM)	synaptosome phagocytosis ([2]; 1.39 µM)	synaptosome phagocytosis ([2]; 2.78 µM)	synaptosome phagocytosis ([2]; 5.56 µM)	synaptosome phagocytosis ([2]; 11.11 µM)	synaptosome phagocytosis ([2]; 22.22 µM)
CC(=O)NCCc1c[nH]c2ccc(O)cc12 [N-Acetyl-5-hydroxytryptamine]	-11%	-20.8%	-21.7%	-2.2%	7.1%	108%	138%	102%	101%	132%
C=C1C(=O)O[C@H]2[C@H]1CC/C(C)=C/CC[C@@]1(C)O[C@@H]21 [Parthenolide]	-21.3%	5%	15.5%	11.4%	1.9%	110%	108%	112%	114%	75.1%
O=C1NC(c2cccc([N+](=O)[O-])c2)=CCN1c1ccccc1O [Icilin]	-15.5%	2.6%	-6.6%	-4.9%	0%	74.3%	115%	105%	124%	112%
Cc1ccccc1CNc1ncnc2c1ncn2[C@@H]1O[C@H](CO)[C@@H](O)[C@H]1O [Metrifudil]	7.1%	22.2%	16.4%	20%	30.8%	122%	111%	115%	116%	186%
C=C[C@H]1CN2CC[C@H]1C[C@@H]2[C@@H](O)c1ccnc2ccc(OC)cc12 [Quinidine sulfate]	-9%	-9.3%	-3.9%	-14.9%	-28.8%	67.6%	102%	89.2%	90.7%	97.1%
O=C(O)c1cc(O)c2ccc(Cl)cc2n1 [7-Chlorokynurenic acid]	11.3%	-11.1%	4.9%	-2.2%	12.8%	92.6%	86.1%	84.5%	122%	103%
N[C@@H](CCCC(=O)O)C(=O)O [L-2-aminoadipic acid]	-0.7%	0.6%	-0.5%	-1.3%	-3.4%	102%	118%	117%	122%	118%
COc1ccccc1N1CCN(CCN(C(=O)c2ccc(F)cc2)c2ccccn2)CC1 [p-MPPF dihydrochloride]	6.2%	8.6%	14.6%	10.5%	13.1%	95.7%	115%	113%	124%	111%
NCC=CC(=O)O (stereo in doubt) [cis-4-Aminocrotonic acid]	-7.7%	-12.9%	-11.5%	-11.2%	-1.9%	84.4%	90.7%	117%	90.2%	116%
Cc1[nH]c(=O)c(C#N)cc1-c1ccncc1 [Milrinone]	2.4%	0.5%	22.1%	7.6%	17.8%	94.3%	120%	101%	96.7%	80.3%
CC1(C)CCC(NC(=O)[C@@H](N)CCC(=O)O)CC1	-21.3%	1.4%	-2.3%	15.2%	12.1%	76.1%	122%	123%	110%	116%
Cn1ccc2cc3c(cc21)CCN3C(=O)Nc1cccnc1	-22%	-24.9%	2.2%	-19.5%	-4.9%	99.6%	91.6%	87.1%	109%	102%
CCOC(=O)[C@]12CC1/C(=N\O)c1ccccc1O2 (stereo not given in full)	-19.8%	-12%	-1.4%	-13.9%	7.9%	102%	84%	97.1%	94.4%	79.2%
NC1CCN(c2cccc(Cl)n2)CC1	-13.4%	-20.1%	-17.4%	-8.8%	-12.3%	88.5%	92.1%	101%	115%	125%
NC1CCN(O)C1=O (racemic)	1.5%	-7.5%	-6.9%	-4%	-2.6%	90.3%	90.7%	118%	106%	68.1%
O=c1[nH]c(=O)n([C@H]2C[C@H](O)[C@@H](CO)O2)cc1/C=C/Br [(E)-5-(2-Bromovinyl)-2'-deoxyuridine]	-7%	-18.6%	-25.3%	0.4%	5.6%	86.7%	117%	121%	127%	116%
N=C(N)N/N=C/c1c(Cl)cccc1Cl [Guanabenz acetate]	-11.3%	-1.7%	11.5%	4.9%	-1.6%	108%	104%	117%	132%	93.1%
CCCCCCCC/C=C\CCCCCCCC(=O)NCCc1ccc(O)c(O)c1 [N-Oleoyldopamine]	-1.6%	16.5%	40.4%	75.5%	73.3%	94.1%	87.8%	110%	79.9%	21.8%
CN(C)CCC(c1ccc(Cl)cc1)c1ccccn1 (single isomer, unassigned; (+)) [(+)-Chlorpheniramine maleate]	-12.1%	-16.5%	-12.4%	-6.7%	1.1%	102%	109%	84.2%	101%	124%
